Experiment [1] concerns A2780. As to the kind of experiment: cell growth inhibition ratio vs untreated control (CCK8); higher = stronger inhibition of cell viability. The note with it: 10 µM; 48 h. As for the experimental part: (§1)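 Natural product library (Topscience) screened at 10 µM final concentration for 48 h on ovarian cancer A2780 cells and patient-derived ovarian cancer cells (PDC) in 96-well plates; viability read by CCK8 and reported as inhibition ratio (%) relative to untreated control. Single-dose primary screen.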

Experiment [2] concerns patient-derived ovarian cancer cells (PDC). Described as above. To be noted: 10 µM; 48 h. As for the experimental part:
as §1

SMILES strings stand for the structures. Some of the results follow. Most values come without repeats; read them as rough.

On to `COc1ccc(-c2oc3c(CC=C(C)C)c(O[C@@H]4O[C@H](CO)[C@@H](O)[C@H](O)[C@H]4O)cc(O)c3c(=O)c2O)cc1` [Icariside I], for which the “cell growth inhibition ratio” value in experiment [1] is 38.6%; in experiment [2], -2.4%.
The corresponding values for `CCCCCC=CCC=CCCCCCCCC(=O)OC(COC(=O)CCCCCCCCCCCCCCC)COP(=O)([O-])OCC[N+](C)(C)C` [L-α-Phosphatidylcholine] are 6.62% and 9.51%.
The corresponding values for `Oc1cc(O)c2c(c1)O[C@H](c1ccc(O)c(O)c1)[C@@H](O)C2` [(+)-Catechin Hydrate] are 4.72% and 6.19%.
Regarding `COc1cc2ccc(=O)oc2cc1O` [Scopoletin], the figures for the “cell growth inhibition ratio” value in experiment [1] and in experiment [2] were 8.38% and 13.2%, respectively.
The corresponding values for `CCCCCC1C(=O)CCC1CC(=O)OC` (stereo not given) [Methyl Dihydrojasmonate;Hedione] are 14.5% and -7.95%.
On to `Nc1ncnc2c1ncn2[C@@H]1O[C@H](COP(=O)(O)O)[C@@H](O)[C@H]1O` [Adenosine 5'-monophosphate], for which the “cell growth inhibition ratio” value in experiment [1] was -0.509%; in experiment [2] it was -5.84%.
Turning to `COc1cc(C[C@@H](CO[C@@H]2O[C@H](CO)[C@@H](O)[C@H](O)[C@H]2O)[C@H](CO[C@@H]2O[C@H](CO)[C@@H](O)[C@H](O)[C@H]2O)Cc2ccc(O)c(OC)c2)ccc1O` [Secoisolariciresinol diglucoside], the “cell growth inhibition ratio” value was -0.369% in experiment [1] and 4.99% in experiment [2].
The corresponding values for `C=C1CC[C@@H]2[C@](C)(CO)[C@H](O)CC[C@@]2(C)[C@@H]1C/C=C1/C(=O)OC[C@H]1O` [Andrographolide] are 25.2% and -18.1%.
The corresponding values for `O=c1c(-c2ccc(O)cc2)coc2cc(O)ccc12` [Daidzein] are 1% and 4.88%.
Regarding `O=C(O)C1=C[C@@H](O)[C@@H](O)[C@H](O)C1` [Shikimic Acid], the “cell growth inhibition ratio” value in experiment [1] was -0.739%; in experiment [2] it was -10.1%.

Source of the values: the supplement of paper PMC10373366.
